Changes are numbered by the printed parent chain. No constants are given. Whether binding was seen depends on the method and setting. Binding can be weak; no strength is given. Where a sequence is shown, tags or fusion partners need not be part of it. For some assays here: In cells and extracts the contact can be indirect.
Experiments:
[1] = target: T1, M. maripaludis α-his subunit K59E (Methanococcus maripaludis S2) (UniProt Q6M0L9); experiment: SEC; lysates with α-his mixed with lysates with untagged full length β; purified by ICAR; purified proteins fractionated by size exclusion chromatography (Sephacryl S-300)
T1 sequence: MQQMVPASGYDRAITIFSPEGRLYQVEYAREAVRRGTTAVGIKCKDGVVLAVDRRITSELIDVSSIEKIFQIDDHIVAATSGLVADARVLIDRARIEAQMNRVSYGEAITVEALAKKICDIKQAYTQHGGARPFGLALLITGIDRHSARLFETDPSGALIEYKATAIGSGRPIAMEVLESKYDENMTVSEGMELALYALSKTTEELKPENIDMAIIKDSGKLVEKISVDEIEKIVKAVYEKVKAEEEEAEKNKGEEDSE

[2] = target: T1, M. maripaludis α-his subunit K59E (Methanococcus maripaludis S2); experiment: pull-down; α-his coexpressed with untagged β subunits in E. coli; purified by ICAR through α-his; eluate on nondenaturing 5–10% gel, substrate overlay and SDS-PAGE
[3] = target: T2, M. maripaludis α-his subunit R88D (Methanococcus maripaludis S2) (UniProt Q6M0L9); experiment: as above
T2 sequence: T1 sequence with E59K, R88D

[4] = target: T3, Methanococcus maripaludis S2 20S proteasome α subunit, C-terminally hexahistidine-tagged, wild type (Methanococcus maripaludis S2) (UniProt Q6M0L9); experiment: as above
T3 sequence: T1 sequence with E59K

[5] = target: T1, M. maripaludis α-his subunit K59E (Methanococcus maripaludis S2); experiment: pull-down; lysate mixing: total crude lysates of E. coli separately expressing α-his and untagged β mixed, 37 °C, 30 min; purified by ICAR through α-his; eluate on nondenaturing 5–10% gel, substrate overlay and SDS-PAGE
[6] = target: T2, M. maripaludis α-his subunit R88D (Methanococcus maripaludis S2); experiment: as above
[7] = target: T3, Methanococcus maripaludis S2 20S proteasome α subunit, C-terminally hexahistidine-tagged, wild type (Methanococcus maripaludis S2); experiment: as above

Measured: binding

M. maripaludis β subunit K29E, untagged (Methanococcus maripaludis S2)
binds: [1]

M. maripaludis β subunit R166W, untagged (Methanococcus maripaludis S2)
not listed: [1]
binds: all other assays above

M. maripaludis β subunit T1A, untagged (Methanococcus maripaludis S2)
binds: [2] | [3] | [5] | [6]
